Test results from patent US20230065079A1, “FATTY ACID DERIVATIVE LABELED WITH POSITRON-EMITTING RADIONUCLIDE” (ASTELLAS PHARMA INC., priority 2020, published 2023).

Assay: PET test using normal cynomolgus monkey (heart contrast PET, SUV in myocardium and bone ROI)
Type: in vivo
Settings: MIP PET images 60 and 180 minutes after administration, FIGS. 1A to 1D, result in words
Excerpt: Solutions containing each compound prepared in Examples 1 to 7 and Reference Example 15 ([^18F]FTO) were used to perform a heart contrast PET test using normal cynomolgus monkeys.
For performing non-invasive PET imaging, in a state in which a male cynomolgus monkey was anesthetized with inhalation anesthetic isoflurane, the monkey was held at a supine body position on a PET camera SHR17000 (manufactured by Hamamatsu Photonics K.K.), the solution containing each compound (about 300 MBq) was administered from the lower extremity vein, and continuous imaging was performed for 180 minutes or more after the administration. The PET images were reconstructed by dynamic row-action maximum likelihood algorithm (DRAMA) and average images per each time section which is divided every 20 minutes from 0 minutes to 180 minutes after the administration, are obtained. Then, the region of interest (ROI) was set in the myocardium region or bone (near the spine), and the accumulation (standardized uptake value (SUV)) of each compound was calculated as {radioactivity count in the ROI (MBq/cc)/[dose (MBq)/body weight (g)]}.
The SUV values quantified by setting the ROI for the myocardium and the bone of each compound are shown in Tables 10 and 11 as SUV (myocardium) and SUV (bone). […] A case where the target organ cannot be confirmed in the image and the ROI cannot be set is denoted as n.d. […]

Row | Compound | PET image (heart imaging, accumulation seen in image)
1 | CCCCCCCCC1CC1CC([18F])CCSCCC(=O)O (centres unmarked) [Example 6, 3-{[3-[^18F]fluoro-4-(2-octylcyclopropyl)butyl]sulfanyl}propanoic acid] | excellent heart PET imaging could be performed
2 | O=C(O)CCSCCCC/C=C\CCCCCCCC[18F] [Reference Example 15, 3-{[(5Z)-14-[^18F]fluorotetradec-5-en-1-yl]sulfanyl}propanoic acid, reference compound] | accumulation of [^18F]fluorine is confirmed not only in the heart but also in the bone
